The other results are listed elsewhere or left out.
Experiments:
Assay in all cases: glycan array binding signal (z-score within array); higher = stronger binding
Conditions in all cases: glycan notation: IUPAC condensed, linker removed
Gal3S(b1-4)Glc = molecular target: Gal3S(b1-4)Glc
Procedure, shortened: (§1)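 Glycan array data were curated from 3228 arrays in the Consortium for Functional Glycomics database and kept only where the protein sequence was available. Glycan names were converted to IUPAC-condensed notation, and columns mapping to the same glycan were averaged. The binding signal is a within-array Z-score, averaged across arrays of the same protein sequence at different concentrations or buffers and across linkers. Negative Z-scores can be read as non-binding.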

Gal3S(b1-4)Glc6S = molecular target: Gal3S(b1-4)Glc6S
Procedure, shortened: as §1

Gal3S(b1-4)GlcNAc = molecular target: Gal3S(b1-4)GlcNAc
Procedure, shortened: as §1

[1] = molecular target: Gal3S(b1-4)[Fuc(a1-3)]Glc6S
Procedure, shortened: as §1

[2] = molecular target: Gal3S(b1-4)[Fuc(a1-3)]GlcNAc
Procedure, shortened: as §1

[3] = molecular target: Gal3S(b1-4)[Fuc(a1-3)]GlcNAc6S
Procedure, shortened: as §1

Gal3S4S(b1-4)GlcNAc = molecular target: Gal3S4S(b1-4)GlcNAc
Procedure, shortened: as §1

Gal3S6S(b1-4)GlcNAc = molecular target: Gal3S6S(b1-4)GlcNAc
Procedure, shortened: as §1

Gal3S6S(b1-4)GlcNAc6S = molecular target: Gal3S6S(b1-4)GlcNAc6S
Procedure, shortened: as §1

Gal4S(b1-4)GlcNAc = molecular target: Gal4S(b1-4)GlcNAc
Procedure, shortened: as §1

Gal4S6S(b1-4)GlcNAc = molecular target: Gal4S6S(b1-4)GlcNAc
Procedure, shortened: as §1

Gal6P(b1-4)GlcNAc = molecular target: Gal6P(b1-4)GlcNAc
Procedure, shortened: as §1

Gal6S(b1-3)GlcNAc = molecular target: Gal6S(b1-3)GlcNAc
Procedure, shortened: as §1

Gal6S(b1-3)GlcNAc6S = molecular target: Gal6S(b1-3)GlcNAc6S
Procedure, shortened: as §1

Gal6S(b1-4)Glc = molecular target: Gal6S(b1-4)Glc
Procedure, shortened: as §1

Gal6S(b1-4)Glc6S = molecular target: Gal6S(b1-4)Glc6S
Procedure, shortened: as §1

Gal6S(b1-4)GlcNAc = molecular target: Gal6S(b1-4)GlcNAc
Procedure, shortened: as §1

Gal6S(b1-4)GlcNAc6S = molecular target: Gal6S(b1-4)GlcNAc6S
Procedure, shortened: as §1

GalNAc(a1-3)Gal = molecular target: GalNAc(a1-3)Gal
Procedure, shortened: as §1

GalNAc(a1-3)GalNAc = molecular target: GalNAc(a1-3)GalNAc
Procedure, shortened: as §1

[4] = molecular target: GalNAc(a1-3)GalNAc(b1-3)Gal(a1-4)Gal(b1-4)Glc
Procedure, shortened: as §1

[5] = molecular target: GalNAc(a1-3)GalNAc(b1-3)Gal(a1-4)Gal(b1-4)GlcNAc
Procedure, shortened: as §1

GalNAc(b1-3)Gal = molecular target: GalNAc(b1-3)Gal
Procedure, shortened: as §1

[6] = molecular target: GalNAc(b1-3)Gal(a1-4)Gal(b1-4)GlcNAc
Procedure, shortened: as §1

[7] = molecular target: GalNAc(b1-3)Gal(a1-4)Gal(b1-4)GlcNAc(b1-3)Gal(b1-4)Glc
Procedure, shortened: as §1

[8] = molecular target: GalNAc(b1-3)Gal(a1-6)Gal(b1-4)Glc
Procedure, shortened: as §1

GalNAc(b1-3)GalNAc = molecular target: GalNAc(b1-3)GalNAc
Procedure, shortened: as §1

GalNAc(b1-3)GlcNAc = molecular target: GalNAc(b1-3)GlcNAc
Procedure, shortened: as §1

GalNAc(b1-4)Gal(b1-4)Glc = molecular target: GalNAc(b1-4)Gal(b1-4)Glc
Procedure, shortened: as §1

GalNAc(b1-4)GlcNAc = molecular target: GalNAc(b1-4)GlcNAc
Procedure, shortened: as §1

[9] = molecular target: GalNAc(b1-4)GlcNAc(b1-2)Man
Procedure, shortened: as §1

[10] = molecular target: GalNAc(b1-4)GlcNAc(b1-2)Man(a1-3)[GalNAc(b1-4)GlcNAc(b1-2)Man(a1-6)]Man(b1-4)GlcNAc(b1-4)GlcNAc
Procedure, shortened: as §1

[11] = molecular target: GalNAc(b1-4)GlcNAc(b1-3)GalNAc(b1-4)GlcNAc
Procedure, shortened: as §1

GalNAc(b1-4)GlcNAc6S = molecular target: GalNAc(b1-4)GlcNAc6S
Procedure, shortened: as §1

GalNAc(b1-6)GalNAc = molecular target: GalNAc(b1-6)GalNAc
Procedure, shortened: as §1

GalNAc3S(b1-4)GlcNAc = molecular target: GalNAc3S(b1-4)GlcNAc
Procedure, shortened: as §1

GalNAc3S(b1-4)GlcNAc3S = molecular target: GalNAc3S(b1-4)GlcNAc3S
Procedure, shortened: as §1

[12] = molecular target: GalNAc3S(b1-4)[Fuc(a1-3)]GlcNAc
Procedure, shortened: as §1

GalNAc4S6S(b1-4)GlcNAc = molecular target: GalNAc4S6S(b1-4)GlcNAc
Procedure, shortened: as §1

GalNAc6S(b1-4)GlcNAc = molecular target: GalNAc6S(b1-4)GlcNAc
Procedure, shortened: as §1

Glc(a1-4)Glc = molecular target: Glc(a1-4)Glc
Procedure, shortened: as §1

[13] = molecular target: Glc(a1-4)Glc(a1-4)Glc(a1-4)Glc
Procedure, shortened: as §1

Glc(a1-6)Glc(a1-6)Glc = molecular target: Glc(a1-6)Glc(a1-6)Glc
Procedure, shortened: as §1

[14] = molecular target: Glc(a1-6)Glc(a1-6)Glc(a1-6)Glc
Procedure, shortened: as §1

Glc(b1-4)Glc = molecular target: Glc(b1-4)Glc
Procedure, shortened: as §1

Glc(b1-6)Glc = molecular target: Glc(b1-6)Glc
Procedure, shortened: as §1

GlcA(b1-3)Gal = molecular target: GlcA(b1-3)Gal
Procedure, shortened: as §1

GlcA(b1-3)GlcNAc = molecular target: GlcA(b1-3)GlcNAc
Procedure, shortened: as §1

GlcA(b1-6)Gal = molecular target: GlcA(b1-6)Gal
Procedure, shortened: as §1

[15] = molecular target: GlcA3S(b1-3)Gal(b1-4)GlcNAc(b1-2)Man
Procedure, shortened: as §1

[16] = molecular target: GlcA3S(b1-3)Gal(b1-4)GlcNAc(b1-3)Gal(b1-4)Glc
Procedure, shortened: as §1

[17] = molecular target: GlcNAc(a1-3)Gal(b1-4)GlcNAc
Procedure, shortened: as §1

[18] = molecular target: GlcNAc(a1-4)Gal(b1-3)GlcNAc
Procedure, shortened: as §1

[19] = molecular target: GlcNAc(a1-4)Gal(b1-4)GalNAc
Procedure, shortened: as §1

[20] = molecular target: GlcNAc(a1-4)Gal(b1-4)GlcNAc
Procedure, shortened: as §1

[21] = molecular target: GlcNAc(a1-4)Gal(b1-4)GlcNAc(b1-3)Gal(b1-4)Glc
Procedure, shortened: as §1

[22] = molecular target: GlcNAc(a1-4)Gal(b1-4)GlcNAc(b1-3)Gal(b1-4)GlcNAc
Procedure, shortened: as §1

[23] = molecular target: GlcNAc(a1-4)Gal(b1-4)GlcNAc(b1-3)Gal(b1-4)GlcNAc(b1-3)Gal(b1-4)GlcNAc
Procedure, shortened: as §1

[24] = molecular target: GlcNAc(a1-4)Gal(b1-4)GlcNAc(b1-3)Gal(b1-4)[Fuc(a1-3)]GlcNAc(b1-3)Gal(b1-4)[Fuc(a1-3)]GlcNAc
Procedure, shortened: as §1

[25] = molecular target: GlcNAc(a1-6)Gal(b1-4)GlcNAc
Procedure, shortened: as §1

B1: Thrombomodulin Extracellular (Mus musculus), P15306 (protein)
chain: MLGIFFLGVLAPASLGLSALAKLQPTGSQCVEHECFALFQGPATFLDASQACQRLQGHLMTVRSSVAADVISLLLSQSSMDLGPWIGLQLPQGCDDPVHLGPLRGFQWVTGDNHTSYSRWARPNDQTAPLCGPLCVTVSTATEAAPGEPAWEEKPCETETQGFLCEFYFTASCRPLTVNTRDPEAAHISSTYNTPFGVSGADFQTLPVGSSAAVEPLGLELVCRAPPGTSEGHWAWEATGAWNCSVENGGCEYLCNRSTNEPRCLCPRDMDLQADGRSCARPVVQSCNELCEHFCVSNAEVPGSYSCMCETGYQLAADGHRCEDVDDCKQGPNPCPQLCVNTKGGFECFCYDGYELVDGECVELLDPCFGSNCEFQCQPVSPTDYRCICAPGFAPKPDEPHKCEMFCNETSCPADCDPNSPTVCECPEGFILDEGSVCTDIDECSQGECFTSECRNFPGSYECICGPDTALAGQISKDCDPIPVREDTKEEEGSGEPPVSPTPGSPTGPPSARPVHSGVLIGISIASLSLVVALLALLCHLRKKQGAARAELEYKCASSAKEVVLQHVRTDRTLQKF
glycan array binding signal (z-score) (Gal3S(b1-4)Glc): -0.554
glycan array binding signal (z-score) (Gal3S(b1-4)Glc6S): 0.532
glycan array binding signal (z-score) (Gal3S(b1-4)GlcNAc): 0.121
glycan array binding signal (z-score) [1]: 2.97
glycan array binding signal (z-score) [2]: -0.408
glycan array binding signal (z-score) [3]: -0.144
glycan array binding signal (z-score) (Gal3S4S(b1-4)GlcNAc): 0.564
glycan array binding signal (z-score) (Gal3S6S(b1-4)GlcNAc): 0.604
glycan array binding signal (z-score) (Gal3S6S(b1-4)GlcNAc6S): 1.78
glycan array binding signal (z-score) (Gal4S(b1-4)GlcNAc): -1.12
glycan array binding signal (z-score) (Gal4S6S(b1-4)GlcNAc): -1.03
glycan array binding signal (z-score) (Gal6P(b1-4)GlcNAc): -0.241
glycan array binding signal (z-score) (Gal6S(b1-3)GlcNAc): 0.451
glycan array binding signal (z-score) (Gal6S(b1-3)GlcNAc6S): -1.12
glycan array binding signal (z-score) (Gal6S(b1-4)Glc): 0.205
glycan array binding signal (z-score) (Gal6S(b1-4)Glc6S): 0.336
glycan array binding signal (z-score) (Gal6S(b1-4)GlcNAc): -1.42
glycan array binding signal (z-score) (Gal6S(b1-4)GlcNAc6S): -0.624
glycan array binding signal (z-score) (GalNAc(a1-3)Gal): -0.153
glycan array binding signal (z-score) (GalNAc(a1-3)GalNAc): 0.289
glycan array binding signal (z-score) [4]: -0.533
glycan array binding signal (z-score) [5]: 0.21
glycan array binding signal (z-score) (GalNAc(b1-3)Gal): -0.358
glycan array binding signal (z-score) [6]: -0.153
glycan array binding signal (z-score) [7]: 0.558
glycan array binding signal (z-score) [8]: -0.793
glycan array binding signal (z-score) (GalNAc(b1-3)GalNAc): 1.8
glycan array binding signal (z-score) (GalNAc(b1-3)GlcNAc): -0.126
glycan array binding signal (z-score) (GalNAc(b1-4)Gal(b1-4)Glc): 3.27
glycan array binding signal (z-score) (GalNAc(b1-4)GlcNAc): 1.12
glycan array binding signal (z-score) [9]: -0.804
glycan array binding signal (z-score) [10]: 0.181
glycan array binding signal (z-score) [11]: 1.79
glycan array binding signal (z-score) (GalNAc(b1-4)GlcNAc6S): -0.286
glycan array binding signal (z-score) (GalNAc(b1-6)GalNAc): -1.51
glycan array binding signal (z-score) (GalNAc3S(b1-4)GlcNAc): -0.723
glycan array binding signal (z-score) (GalNAc3S(b1-4)GlcNAc3S): 0.643
glycan array binding signal (z-score) [12]: -0.675
glycan array binding signal (z-score) (GalNAc4S6S(b1-4)GlcNAc): -0.595
glycan array binding signal (z-score) (GalNAc6S(b1-4)GlcNAc): 1.27
glycan array binding signal (z-score) (Glc(a1-4)Glc): 0.367
glycan array binding signal (z-score) [13]: 0.993
glycan array binding signal (z-score) (Glc(a1-6)Glc(a1-6)Glc): -0.105
glycan array binding signal (z-score) [14]: -0.226
glycan array binding signal (z-score) (Glc(b1-4)Glc): -0.067
glycan array binding signal (z-score) (Glc(b1-6)Glc): -0.947
glycan array binding signal (z-score) (GlcA(b1-3)Gal): -0.28
glycan array binding signal (z-score) (GlcA(b1-3)GlcNAc): -0.862
glycan array binding signal (z-score) (GlcA(b1-6)Gal): 1.18
glycan array binding signal (z-score) [15]: -0.44
glycan array binding signal (z-score) [16]: -0.979
glycan array binding signal (z-score) [17]: -0.816
glycan array binding signal (z-score) [18]: 0.594
glycan array binding signal (z-score) [19]: -0.931
glycan array binding signal (z-score) [20]: -0.555
glycan array binding signal (z-score) [21]: -0.323
glycan array binding signal (z-score) [22]: -1.19
glycan array binding signal (z-score) [23]: 2.52
glycan array binding signal (z-score) [24]: 0.795
glycan array binding signal (z-score) [25]: -1.28
